# From the supplement of paper PMC8728848
# This is one part of the list.
# B1: CBP21 (Serratia marcescens), O83009 (protein)
# chain: MNKTSRTLLSLGLLSAAMFGVSQQANAHGYVESPASRAYQCKLQLNTQCGSVQAEPQSVEGLKGFPQAGPADGHIASADKSTFFELDQQTPTRWNKLNLKTGPNSFTWKLTARHSTTSWRYFITKPNWDASQPLTRASFDLTPFCQFNDGGAIPAAQVTHQCNIPADRSGSHVILAVWDIADTANAFYQAIDVNLSK
# Experiments:
# Test in all cases: glycan array binding signal (z-score within array); higher = stronger binding
# Details in all cases: glycan notation: IUPAC condensed, linker removed; mutation: Y54A
# [1] = molecular target: Gal(b1-4)GlcNAc(b1-2)Man(a1-6)[GlcNAc(b1-2)Man(a1-3)]Man(b1-4)GlcNAc(b1-4)GlcNAc
# Method in brief: (§1)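 From the Consortium for Functional Glycomics database, 3228 arrays were curated, keeping only those whose protein sequence was available. Binding is given as a within-array Z-score averaged across arrays sharing a protein sequence and across linkers. Negative Z-scores can be read as non-binding.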
# [2] = molecular target: Gal(b1-4)GlcNAc(b1-2)Man(a1-6)[Man(a1-3)]Man(b1-4)GlcNAc(b1-4)GlcNAc
# Method in brief: as §1
# [3] = molecular target: Gal(b1-4)GlcNAc(b1-2)[Gal(b1-4)GlcNAc(b1-4)]Man(a1-3)[Gal(b1-4)GlcNAc(b1-2)Man(a1-6)]Man(b1-4)GlcNAc(b1-4)GlcNAc
# Method in brief: as §1
# [4] = molecular target: Gal(b1-4)GlcNAc(b1-2)[Gal(b1-4)GlcNAc(b1-4)]Man(a1-3)[Gal(b1-4)GlcNAc(b1-2)[Gal(b1-4)GlcNAc(b1-6)]Man(a1-6)]Man(b1-4)GlcNAc(b1-4)GlcNAc
# Method in brief: as §1
# [5] = molecular target: Gal(b1-4)GlcNAc(b1-2)[Gal(b1-4)GlcNAc(b1-4)]Man(a1-3)[GlcNAc(b1-4)][Gal(b1-4)GlcNAc(b1-2)Man(a1-6)]Man(b1-4)GlcNAc(b1-4)GlcNAc
# Method in brief: as §1
# [6] = molecular target: Gal(b1-4)GlcNAc(b1-2)[Gal(b1-4)GlcNAc(b1-4)]Man(a1-3)[GlcNAc(b1-4)][Gal(b1-4)GlcNAc(b1-2)[Gal(b1-4)GlcNAc(b1-6)]Man(a1-6)]Man(b1-4)GlcNAc(b1-4)GlcNAc
# Method in brief: as §1
# [7] = molecular target: Gal(b1-4)GlcNAc(b1-2)[Gal(b1-4)GlcNAc(b1-6)]Man(a1-6)[Gal(b1-4)GlcNAc(b1-2)Man(a1-3)]Man(b1-4)GlcNAc(b1-4)GlcNAc
# Method in brief: as §1
# [8] = molecular target: Gal(b1-4)GlcNAc(b1-2)[Gal(b1-4)GlcNAc(b1-6)]Man(a1-6)[Gal(b1-4)GlcNAc(b1-2)Man(a1-3)]Man(b1-4)GlcNAc(b1-4)[Fuc(a1-6)]GlcNAc
# Method in brief: as §1
# [9] = molecular target: Gal(b1-4)GlcNAc(b1-2)[Gal(b1-4)GlcNAc(b1-6)]Man(a1-6)[GlcNAc(b1-4)][Gal(b1-4)GlcNAc(b1-2)Man(a1-3)]Man(b1-4)GlcNAc(b1-4)GlcNAc
# Method in brief: as §1
# [10] = molecular target: Gal(b1-4)GlcNAc(b1-2)[Gal(b1-4)GlcNAc(b1-6)]Man(a1-6)[GlcNAc(b1-4)][Gal(b1-4)GlcNAc(b1-2)[Gal(b1-4)GlcNAc(b1-4)]Man(a1-3)]Man(b1-4)GlcNAc(b1-4)[Fuc(a1-6)]GlcNAc
# Method in brief: as §1
# [11] = molecular target: Gal(b1-4)GlcNAc(b1-3)Gal(b1-3)GalNAc
# Method in brief: as §1
# [12] = molecular target: Gal(b1-4)GlcNAc(b1-3)Gal(b1-3)GlcNAc
# Method in brief: as §1
# [13] = molecular target: Gal(b1-4)GlcNAc(b1-3)Gal(b1-4)Glc
# Method in brief: as §1
# [14] = molecular target: Gal(b1-4)GlcNAc(b1-3)Gal(b1-4)GlcNAc
# Method in brief: as §1
# [15] = molecular target: Gal(b1-4)GlcNAc(b1-3)Gal(b1-4)GlcNAc(b1-2)Man(a1-3)[Gal(b1-4)GlcNAc(b1-3)Gal(b1-4)GlcNAc(b1-2)Man(a1-6)]Man(b1-4)GlcNAc(b1-4)GlcNAc
# Method in brief: as §1
# [16] = molecular target: Gal(b1-4)GlcNAc(b1-3)Gal(b1-4)GlcNAc(b1-2)Man(a1-3)[Gal(b1-4)GlcNAc(b1-3)Gal(b1-4)GlcNAc(b1-2)Man(a1-6)]Man(b1-4)GlcNAc(b1-4)[Fuc(a1-6)]GlcNAc
# Method in brief: as §1
# [17] = molecular target: Gal(b1-4)GlcNAc(b1-3)Gal(b1-4)GlcNAc(b1-2)[Gal(b1-4)GlcNAc(b1-3)Gal(b1-4)GlcNAc(b1-6)]Man(a1-6)[Gal(b1-4)GlcNAc(b1-3)Gal(b1-4)GlcNAc(b1-2)Man(a1-3)]Man(b1-4)GlcNAc(b1-4)GlcNAc
# Method in brief: as §1
# [18] = molecular target: Gal(b1-4)GlcNAc(b1-3)Gal(b1-4)GlcNAc(b1-2)[Gal(b1-4)GlcNAc(b1-3)Gal(b1-4)GlcNAc(b1-6)]Man(a1-6)[Gal(b1-4)GlcNAc(b1-3)Gal(b1-4)GlcNAc(b1-2)Man(a1-3)]Man(b1-4)GlcNAc(b1-4)[Fuc(a1-6)]GlcNAc
# Method in brief: as §1
# [19] = molecular target: Gal(b1-4)GlcNAc(b1-3)Gal(b1-4)GlcNAc(b1-3)Gal(b1-4)GlcNAc
# Method in brief: as §1
# [20] = molecular target: Gal(b1-4)GlcNAc(b1-3)Gal(b1-4)GlcNAc(b1-3)Gal(b1-4)GlcNAc(b1-2)Man(a1-3)[Gal(b1-4)GlcNAc(b1-3)Gal(b1-4)GlcNAc(b1-3)Gal(b1-4)GlcNAc(b1-2)Man(a1-6)]Man(b1-4)GlcNAc(b1-4)GlcNAc
# Method in brief: as §1
# [21] = molecular target: Gal(b1-4)GlcNAc(b1-3)Gal(b1-4)GlcNAc(b1-3)Gal(b1-4)GlcNAc(b1-2)Man(a1-3)[Gal(b1-4)GlcNAc(b1-3)Gal(b1-4)GlcNAc(b1-3)Gal(b1-4)GlcNAc(b1-2)Man(a1-6)]Man(b1-4)GlcNAc(b1-4)[Fuc(a1-6)]GlcNAc
# Method in brief: as §1
# [22] = molecular target: Gal(b1-4)GlcNAc(b1-3)Gal(b1-4)GlcNAc(b1-3)Gal(b1-4)GlcNAc(b1-2)[Gal(b1-4)GlcNAc(b1-3)Gal(b1-4)GlcNAc(b1-3)Gal(b1-4)GlcNAc(b1-6)]Man(a1-6)[Gal(b1-4)GlcNAc(b1-3)Gal(b1-4)GlcNAc(b1-3)Gal(b1-4)GlcNAc(b1-2)Man(a1-3)]Man(b1-4)GlcNAc(b1-4)[Fuc(a1-6)]GlcNAc
# Method in brief: as §1
binder,measurement,setting,value
B1,glycan array binding signal (z-score),[1],-0.884
same,glycan array binding signal (z-score),[2],-0.719
same,glycan array binding signal (z-score),[3],-0.44
same,glycan array binding signal (z-score),[4],0.113
same,glycan array binding signal (z-score),[5],-0.281
same,glycan array binding signal (z-score),[6],-0.785
same,glycan array binding signal (z-score),[7],-0.937
same,glycan array binding signal (z-score),[8],-0.513
same,glycan array binding signal (z-score),[9],-0.473
same,glycan array binding signal (z-score),[10],-0.57
same,glycan array binding signal (z-score),[11],-0.731
same,glycan array binding signal (z-score),[12],-0.325
same,glycan array binding signal (z-score),[13],0.422
same,glycan array binding signal (z-score),[14],-0.635
same,glycan array binding signal (z-score),[15],0.308
same,glycan array binding signal (z-score),[16],-0.38
same,glycan array binding signal (z-score),[17],-0.082
same,glycan array binding signal (z-score),[18],1.02
same,glycan array binding signal (z-score),[19],-0.11
same,glycan array binding signal (z-score),[20],0.396
same,glycan array binding signal (z-score),[21],-0.892
same,glycan array binding signal (z-score),[22],0.063

# An excerpt of these results, as tab-separated lines:
binder	measurement	setting	value
B1	glycan array binding signal (z-score)	[3]	-0.44
same	glycan array binding signal (z-score)	[5]	-0.281
